PubChem BioAssay AID720505 | Drosophila RNAi Screening Center, 2013
The deposit covers about 20,000 reagents; this is a random part of those with a known target gene and a result. Over the whole deposit, about 2,100 (10%) are marked active. 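Raw plate signals without normalisation; calls rest on control-based scores that were not deposited; replicate 2 separates called from uncalled poorly.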 Unmarked entries are inactive. Not given: the amount of reagent, the time to read-out.

Assay: 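Fly regulators or components of the CRAC channel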 (primary screen)
System: Drosophila S2R+ cells
Reagent: long dsRNA against Drosophila genes
Conditions: thapsigargin (2 µM) in calcium-free buffer to empty internal stores, then 2 mM calcium added back
Measured: 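Fluo-4 signal in 384-well plates read on a FLIPR after thapsigargin (2 µM, calcium-free) store depletion and 2 mM calcium add-back; unnormalised mean endpoint per well; screen run twice, selected wells retested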
Reading the numbers: calcium signal and retest calcium signal: higher = more calcium entry after store depletion
Call rule: 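About 1500 genes called as lowering calcium entry, by varying amounts, judged against per-plate control wells with STIM1 as positive and Rho1 as negative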
Calls: active = called as lowering calcium entry; inactive = not called

CG5567 [DRSC10517] gave calcium signal, replicate 1 = 133; calcium signal, replicate 2 = 89.4.
After knock-down of Vm26Ab [DRSC03473] the results were calcium signal, replicate 1 = 119; calcium signal, replicate 2 = 95; retest calcium signal, replicate 1 = 80.7; retest calcium signal, replicate 2 = 95.2.
For CG4313 [DRSC18514], the entry reads calcium signal, replicate 1 = 98.5; calcium signal, replicate 2 = 101.
Against RhoGEF64C [DRSC08318], the values are calcium signal, replicate 1 = 101; calcium signal, replicate 2 = 78.4.
Against RhoGEF64C [DRSC08319] the deposit lists calcium signal, replicate 1 = 88.9; calcium signal, replicate 2 = 89.5.
After knock-down of Ccp84Ad [DRSC12589] the results were calcium signal, replicate 1 = 86.7; calcium signal, replicate 2 = 160; retest calcium signal, replicate 1 = 6386; retest calcium signal, replicate 2 = 130.
For Ccp84Ad [DRSC22854], the values are calcium signal, replicate 1 = 78.5; calcium signal, replicate 2 = 86.2.
With knock-down of mat [DRSC08376], the record shows calcium signal, replicate 1 = 98.9; calcium signal, replicate 2 = 111.
After knock-down of mat [DRSC22841], the screen gave calcium signal, replicate 1 = 98; calcium signal, replicate 2 = 107.
Depletion of Cdk4 [DRSC07358] came out at: calcium signal, replicate 1 = 138; calcium signal, replicate 2 = 138.
CG31715 [DRSC21607] scored calcium signal, replicate 1 = 105; calcium signal, replicate 2 = 106.
Silencing of Gr28a [DRSC02290] resulted in: calcium signal, replicate 1 = 203; calcium signal, replicate 2 = 74.9.

Copied from the entries so far for reference:
CG4313 [DRSC18514] — calcium signal, replicate 1: 98.5; calcium signal, replicate 2: 101
RhoGEF64C [DRSC08318] — calcium signal, replicate 1: 101; calcium signal, replicate 2: 78.4
